Laboratory results: PubChem BioAssay AID686938 (Drosophila RNAi Screening Center, 2013)

Purpose: 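Looking for CRAC channel components and the factors controlling them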 (primary screen)
System: Drosophila S2R+ cells
Reagent: long dsRNA against Drosophila genes, about 0.25 µg dsRNA per well, roughly 10,000 cells
Time to read-out: 5 days of knock-down before the calcium assay
Conditions: thapsigargin (SERCA pump blocker) to empty calcium stores; entry signal taken 4 min after adding it
Read-out: 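Per-well fluo-4 fluorescence in two replicates, unnormalised, measured in resting cells and 4 min after store depletion by the SERCA blocker thapsigargin; ratio of the two present in few wells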
Direction: calcium entry signal: higher = stronger calcium signal after store depletion; resting calcium signal: higher = higher resting calcium signal
Units: calcium entry signal in fluorescence units; resting calcium signal in fluorescence units
Call rule: 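Hit if the duplicate-averaged plate z-score for entry over resting signal is under −3; wells with weak total dye signal (Fmax z < −2) or more than 5 off-targets removed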
Meaning of the calls: active = strongly reduced calcium entry; inactive = no strong reduction
The screen tested about 23,000 reagents; this is an unselected part of those that have a named target and a result. In the full data, 75 (0.33%) are marked active. 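Raw plate signals without normalisation; calls rest on plate z-scores that were not deposited; ratio present for only 364 wells.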 Unmarked entries are inactive. The numbers tell different reagents against one gene apart. Not stated in the record: the dose of the treatment.

Which result is listed for CG3500?
calcium entry signal, replicate 1: 3.41e7; calcium entry signal, replicate 2: 3.90e7; resting calcium signal, replicate 1: 1.80e7; resting calcium signal, replicate 2: 1.85e7

What did the screen give for CG14262?
calcium entry signal, replicate 1: 3.68e7; calcium entry signal, replicate 2: 7.14e7; resting calcium signal, replicate 1: 1.83e7; resting calcium signal, replicate 2: 2.67e7

With Gp210 #1, what was measured?
calcium entry signal, replicate 1: 4.16e7; calcium entry signal, replicate 2: 5.22e7; resting calcium signal, replicate 1: 2.04e7; resting calcium signal, replicate 2: 2.24e7

What is on record for Gp210 #2?
calcium entry signal, replicate 1: 3.77e7; resting calcium signal, replicate 1: 1.96e7

For CG13994, what was measured?
calcium entry signal, replicate 1: 3.77e7; calcium entry signal, replicate 2: 3.30e7; resting calcium signal, replicate 1: 1.85e7; resting calcium signal, replicate 2: 1.55e7

Which result is listed for sim?
calcium entry signal, replicate 1: 2.44e7; calcium entry signal, replicate 2: 3.61e7; resting calcium signal, replicate 1: 1.23e7; resting calcium signal, replicate 2: 4.82e7

With RhoBTB, what does the deposit list?
calcium entry signal, replicate 1: 4.17e7; calcium entry signal, replicate 2: 4.91e7; resting calcium signal, replicate 1: 1.87e7; resting calcium signal, replicate 2: 3.21e7

For Obp99c, what was measured?
calcium entry signal, replicate 1: 5.12e7; calcium entry signal, replicate 2: 4.67e7; resting calcium signal, replicate 1: 2.37e7; resting calcium signal, replicate 2: 1.96e7

For Ir75b, what does the deposit list?
calcium entry signal, replicate 1: 3.96e7; calcium entry signal, replicate 2: 4.96e7; resting calcium signal, replicate 1: 1.92e7; resting calcium signal, replicate 2: 2.20e7

Which result is listed for cv-c #1?
calcium entry signal, replicate 1: 2.51e7; calcium entry signal, replicate 2: 3.52e7; resting calcium signal, replicate 1: 1.24e7; resting calcium signal, replicate 2: 5.10e7

For cv-c #2, what does the deposit list?
calcium entry signal, replicate 1: 2.19e7; calcium entry signal, replicate 2: 2.53e7; resting calcium signal, replicate 1: 1.18e7; resting calcium signal, replicate 2: 4.22e7

Which result is listed for cv-c #3?
calcium entry signal, replicate 1: 2.15e7; calcium entry signal, replicate 2: 2.61e7; resting calcium signal, replicate 1: 1.15e7; resting calcium signal, replicate 2: 3.95e7

For cv-c #4, what was measured?
calcium entry signal, replicate 1: 2.46e7; calcium entry signal, replicate 2: 6.11e7; resting calcium signal, replicate 1: 1.27e7; resting calcium signal, replicate 2: 9.16e7

What is on record for cv-c #5?
calcium entry signal, replicate 1: 2.60e7; calcium entry signal, replicate 2: 4.91e7; resting calcium signal, replicate 1: 1.35e7; resting calcium signal, replicate 2: 7.41e7

Which result is listed for cv-c #6?
calcium entry signal, replicate 1: 2.63e7; calcium entry signal, replicate 2: 3.07e7; resting calcium signal, replicate 1: 1.35e7; resting calcium signal, replicate 2: 4.85e7

What is on record for cv-c #7?
calcium entry signal, replicate 1: 4.22e7; calcium entry signal, replicate 2: 2.59e7; resting calcium signal, replicate 1: 2.09e7; resting calcium signal, replicate 2: 1.29e7

With abs, how do the results read?
calcium entry signal, replicate 1: 3.27e7; calcium entry signal, replicate 2: 3.64e7; resting calcium signal, replicate 1: 1.77e7; resting calcium signal, replicate 2: 2.85e7

With betaNACtes5, what does the deposit list?
calcium entry signal, replicate 1: 2.38e7; calcium entry signal, replicate 2: 3.01e7; resting calcium signal, replicate 1: 1.19e7; resting calcium signal, replicate 2: 1.41e7

Which result is listed for CG15916?
calcium entry signal, replicate 1: 3.72e7; calcium entry signal, replicate 2: 3.45e7; resting calcium signal, replicate 1: 1.83e7; resting calcium signal, replicate 2: 1.55e7

Which result is listed for dsf?
calcium entry signal, replicate 1: 2.81e7; calcium entry signal, replicate 2: 2.82e7; resting calcium signal, replicate 1: 1.39e7; resting calcium signal, replicate 2: 1.36e7

With slmb, how do the results read?
calcium entry signal, replicate 1: 3.88e7; calcium entry signal, replicate 2: 3.64e7; resting calcium signal, replicate 1: 1.69e7; resting calcium signal, replicate 2: 1.54e7

What did the screen give for Gycbeta100B #1?
calcium entry signal, replicate 1: 3.64e7; calcium entry signal, replicate 2: 4.47e7; resting calcium signal, replicate 1: 2.14e7; resting calcium signal, replicate 2: 2.01e7

With Gycbeta100B #2, what does the deposit list?
calcium entry signal, replicate 1: 3.73e7; calcium entry signal, replicate 2: 4.65e7; resting calcium signal, replicate 1: 2.12e7; resting calcium signal, replicate 2: 2.09e7

For Gycbeta100B #3, how do the results read?
calcium entry signal, replicate 1: 4.04e7; calcium entry signal, replicate 2: 5.44e7; resting calcium signal, replicate 1: 1.65e7; resting calcium signal, replicate 2: 2.31e7

Which result is listed for CG31441?
calcium entry signal, replicate 1: 3.17e7; calcium entry signal, replicate 2: 2.74e7; resting calcium signal, replicate 1: 1.43e7; resting calcium signal, replicate 2: 1.37e7

Which result is listed for Vps16A?
calcium entry signal, replicate 1: 2.48e7; calcium entry signal, replicate 2: 3.02e7; resting calcium signal, replicate 1: 1.67e7; resting calcium signal, replicate 2: 1.75e7

With mRpL9, what does the deposit list?
calcium entry signal, replicate 1: 3.44e7; calcium entry signal, replicate 2: 4.74e7; resting calcium signal, replicate 1: 1.72e7; resting calcium signal, replicate 2: 7.25e7

Just “resting calcium signal, replicate 1”, for 3 of the entries above:
CG13994 = 1.85e7
sim = 1.23e7
RhoBTB = 1.87e7
